Our source for the survivor count and T/C values is PubChem BioAssay AID330 (DTP/NCI, 2004).

This test concerns P388 leukemia ip, CD2F1 mice, survival T/C. Put plainly: NCI In Vivo Anticancer Drug Screen. Data for tumor model P388 Leukemia (intraperitoneal) in CD2F1 (CDF1) mice. The note with it: T/C endpoint: median survival time, higher T/C = longer survival.
The mark [1] stands for this setting: dose: 200.0 mg/kg/injection, schedule: Q01DX005 (ip), vehicle: Klucel (hydroxypropylcellulose) (HPC).
[2] abbreviates: dose: 240.0 mg/kg/injection, schedule: Q01DX005 (ip), vehicle: Klucel (hydroxypropylcellulose) (HPC).
The mark [3] stands for this setting: dose: 50.0 mg/kg/injection, schedule: Q01DX009 (ip), vehicle: saline with Tween-80.
Where [4] appears, read: dose: 100.0 mg/kg/injection, schedule: Q01DX009 (ip), vehicle: saline with Tween-80.
[5] abbreviates: dose: 200.0 mg/kg/injection, schedule: Q01DX009 (ip), vehicle: saline with Tween-80.
Where [6] appears, read: dose: 200.0 mg/kg/injection, schedule: Q01DX009 (ip), vehicle: water.
[7] abbreviates: dose: 200.0 mg/kg/injection, schedule: Q01DX005 (ip), vehicle: saline.
[8] abbreviates: dose: 240.0 mg/kg/injection, schedule: Q01DX005 (ip), vehicle: saline with Tween-80.
Setting [9] is: dose: 50.0 mg/kg/injection, schedule: Q01DX005 (ip), vehicle: saline with Tween-80.
Setting [10] is: dose: 200.0 mg/kg/injection, schedule: Q01DX005 (ip), vehicle: saline with Tween-80.
Setting [11] is: dose: 50.0 mg/kg/injection, schedule: Q01DX005 (ip), vehicle: Klucel (hydroxypropylcellulose) (HPC).
The mark [12] stands for this setting: dose: 100.0 mg/kg/injection, schedule: Q01DX005 (ip), vehicle: Klucel (hydroxypropylcellulose) (HPC).

Structures are written as SMILES. The list does not hold the whole screen: it gathers tests that were run many times, whatever their T/C, doses with no T/C, and many T/C values between a quarter and a half above the control. Further doses and runs are listed elsewhere. T/C is the treated group as % of the vehicle group. Some entries give survivors of the animals treated and no T/C: the source files T/C as zero there, which appears to mark a toxic dose or a test without result, not a measured value. Some doses without a T/C left all or most animals alive at the check, yet need not have been tolerated: the source hardly ever lists a survival T/C far under the control, and the zero likely stands for such cases as well. Survivors were counted at the toxicity check, usually on the fifth day, unless a day is given; later deaths do not show. Schedules are NCI's codes, read here as Q, the interval in days (D) or hours (H), X, the number of doses. Where survival is the endpoint, the PubChem record calls one and a half times the control and up active, and a quarter to a half above the control has no call in these data; cut-offs in other NCI protocols can differ. Some T/C values are followed by the survivors on the day toxicity was checked, most often the fifth; where none is given, no animal had died by that day. Some doses were run more than once; the values are given in rising order. Brackets with × say how often a value occurs here.

For the molecule `C=C1C[C@](C(N)=O)(C2OC3OC(C)(C)OC3C2OCc2ccccc2)OC1=O` (stereo not given in full), the survivor count is, setting by setting: (dose: 200.0 mg/kg/injection, schedule: Q01DX001 (ip), vehicle: saline with Tween-80) 0 of 6; (dose: 400.0 mg/kg/injection, schedule: Q01DX001 (ip), vehicle: saline with Tween-80) 0 of 6.
In the case of `CNC(=S)N/N=C/Cn1cc([N+](=O)[O-])c(=O)[nH]c1=O`, the survivor count under setting [1] is on record as 2 of 6.
Regarding `COC(=O)c1nc(=S)[nH]c(C(=O)OC)c1C(=O)c1ccc(O)c(OC)c1`, under setting [2], the survivor count is listed as 0 of 6.
In the case of `NC(=O)Cc1noc2ccccc12`, the T/C reads like this: under setting [3], 97, 116, 120 % of control (2×); under setting [4], 88, 100, 110, 115 % of control; under setting [5], 94, 99, 106 [5 of 6 alive], 125 % of control.
In the case of `O=NNc1c2c(nc3ccccc13)CCCC2`, under setting [6], the survivor count is 0 of 6.
Regarding `CC(C)=CCSC(N)N`, the survivor count by setting is: (dose: 120.0 mg/kg/injection, schedule: Q01DX005 (ip), vehicle: saline) 0 of 6; (dose: 240.0 mg/kg/injection, schedule: Q01DX005 (ip), vehicle: saline) 0 of 6.
`O=c1c2ccccc2sc2c([N+](=O)[O-])ccc(NCC3CCCN4CCCCC34)c12` (stereo not given): for the setting “dose: 308.0 mg/kg/injection, schedule: Q01DX005 (ip), vehicle: saline with Tween-80”, the survivor count is 3 of 6.
As for `CN(C)CC(CN(C)C)C(=O)c1ccc(Cl)cc1`, the survivor count is 3 of 6 (dose: 50.0 mg/kg/injection, schedule: Q01DX005 (ip), vehicle: saline); 2 of 6 (dose: 100.0 mg/kg/injection, schedule: Q01DX005 (ip), vehicle: saline); 0 of 6 under setting [7].
With `CC(=O)Oc1ccc(CO)cc1OC(C)=O`, the survivor count reads like this: under setting [7], 1 of 6; (dose: 400.0 mg/kg/injection, schedule: Q01DX005 (ip), vehicle: saline) 0 of 6.
On to `Cn1c(=O)c2c(ncn2-c2ccc(N)cc2Cl)n(C)c1=O`, for which, under “dose: 100.0 mg/kg/injection, schedule: Q01DX005 (ip), vehicle: distilled water + alcohol”, the survivor count is given as 3 of 5.
Regarding `CC1C(C(=O)NCC(c2ccccc2)c2ccccc2)CC2CCCCN21` (stereo not given), the survivor count runs as follows: (dose: 120.0 mg/kg/injection, schedule: Q01DX005 (ip), vehicle: saline with Tween-80) 0 of 6; under setting [8], 0 of 6.
Turning to `CC1(C)N=C(N)N=C(N)N1c1ccc(OCc2ccc(C(=O)Nc3cccc(S(=O)(=O)F)c3)cc2)c(Cl)c1`, the survivor count reads like this: (dose: 200.0 mg/kg/injection, schedule: Q04DX003 (ip), vehicle: saline) 5 of 6; (dose: 400.0 mg/kg/injection, schedule: Q04DX003 (ip), vehicle: saline) 3 of 6.
For the molecule `ClC(Cl)(Cl)Sn1cccn1`, the survivor count under setting [5] is given as 0 of 6.
As to `FC(F)(F)c1ccccc1N=Cc1ccc(C=Nc2ccccc2C(F)(F)F)cc1`, the survivor count (dose: 200.0 mg/kg/injection, schedule: Q01DX009 (ip), vehicle: Klucel (hydroxypropylcellulose) (HPC)) was 6 of 6.
On to `CCCCCCC(O)C/C=C\CCCCCCc1c(C(=O)OC)[nH]c(=S)[nH]c1=O` (stereo not given), for which the survivor count under setting [8] is 0 of 6.
For the molecule `C[C@@H]1C[C@@H]2c3cccc4[nH]cc(c34)C[C@H]2N(C)C1`, the survivor count under setting [9] is recorded as 3 of 6; the survivor count (dose: 100.0 mg/kg/injection, schedule: Q01DX005 (ip), vehicle: saline with Tween-80) was 0 of 6; the survivor count under setting [10] was 0 of 6.
As for `CCCCCCCC(=O)O[C@H]1[C@H]2[C@@H](CC1(C)C)C(=O)[C@]13O[C@H]1C(=O)[C@]1(CO1)[C@]23C`, the T/C reads like this: (dose: 3.3 mg/kg/injection, schedule: Q01DX009 (ip), vehicle: saline with Tween-80) 127 % of control; (dose: 5.0 mg/kg/injection, schedule: Q01DX009 (ip), vehicle: saline) 140 % of control [5 of 6 alive]. The survivor count was 3 of 6 (dose: 20.0 mg/kg/injection, schedule: Q01DX009 (ip), vehicle: saline with Tween-80) and 1 of 6 (dose: 20.0 mg/kg/injection, schedule: Q01DX009 (ip), vehicle: saline).
`O=NNc1cncc(Cl)n1`: the survivor count (dose: 100.0 mg/kg/injection, schedule: Q01DX009 (ip), vehicle: water) was 6 of 6 and the survivor count under setting [6] is reported as 1 of 6.
Turning to `CCOC(=O)/C(=C(/C)N=Cc1ccccc1[N+](=O)[O-])C(NN=O)c1ccccc1[N+](=O)[O-]` (stereo not given), the survivor count runs as follows: under setting [11], 6 of 6; under setting [1], 6 of 6.
As for `Nc1ccc(N=Nc2ccc3cc4ccc(N=Nc5ccc(N)nc5N)cc4nc3c2)c(N)n1`, under setting [9], the survivor count is 3 of 6.
Consider `CC1=CC(O)C(O)C2(C)C1CC(=O)C13COC4OC(CC1C4=O)C(O)C32` (stereo not given), for which, where the note is “dose: 8.0 mg/kg/injection, schedule: Q01DX009 (ip), vehicle: Klucel (hydroxypropylcellulose) (HPC)”, the T/C was 128 % of control.
Consider `[Cl][Sn]([O][Sn]([Cl])([c]1ccccc1)[CH]1CCCCC1)([c]1ccccc1)[CH]1CCCCC1` (stereo not given), for which the T/C by setting is: (dose: 0.78 mg/kg/injection, schedule: Q01DX005 (ip), vehicle: saline) 134 % of control; (dose: 1.56 mg/kg/injection, schedule: Q01DX005 (ip), vehicle: saline, evaluated on day 20) 137 % of control; (dose: 1.56 mg/kg/injection, schedule: Q01DX005 (ip), vehicle: saline, evaluated on day 30) 136 % of control. Besides, the survivor count (dose: 3.12 mg/kg/injection, schedule: Q01DX005 (ip), vehicle: saline) is reported as 2 of 6; the survivor count (dose: 6.25 mg/kg/injection, schedule: Q01DX005 (ip), vehicle: saline) was 0 of 6; the survivor count (dose: 12.5 mg/kg/injection, schedule: Q01DX005 (ip), vehicle: saline) is reported as 0 of 6; the survivor count (dose: 25.0 mg/kg/injection, schedule: Q01DX005 (ip), vehicle: saline) is 0 of 6; the survivor count under setting [11] is given as 0 of 6; the survivor count under setting [12] is 0 of 6. Further, the survivor count under setting [1] was 0 of 6.
Turning to `CCCCCCCN(CCCCCCC)CCCC(O)c1cccc2ccccc12` (stereo not given), the survivor count by setting is: under setting [9], 1 of 5; under setting [10], 0 of 5.
Consider `CCOC(=O)c1nc(SC)sc1N`, for which the survivor count under setting [8] was 1 of 6.
Turning to `CCOC(=O)/C(=C(\C)N)n1[nH]c(=O)n(-c2ccccc2)c1=O`, the survivor count (dose: 25.0 mg/kg/injection, schedule: Q01DX005 (ip), vehicle: Klucel (hydroxypropylcellulose) (HPC)) is recorded as 6 of 6.
Consider `CCCCCC(C)(O)C1=NCCN1` (stereo not given), for which the survivor count was 2 of 6 under setting [12] and 0 of 6 under setting [1].
In the case of `Cc1cccc(/C(=C/c2ccc([N+](=O)[O-])cc2)C(=O)Nc2ccc(S(=O)(=O)F)cc2)c1`, under setting [8], the survivor count was 6 of 6.
With `C=CCN(CC=C)c1ccc(/C=C\c2ccnc3ccccc23)cc1`, the survivor count is 6 of 6 under setting [3]; 5 of 6 under setting [4]; 0 of 6 under setting [5]; 0 of 6 (dose: 400.0 mg/kg/injection, schedule: Q01DX009 (ip), vehicle: saline with Tween-80).
As to `CNC(C(=O)OC(C)(C)C)C(C)C` (stereo not given), the survivor count under setting [7] was 2 of 6.
Regarding `COc1cc2c(c(OC)c1OC)-c1cc3c(cc1CC1COC(=O)N1C2)OCO3` (stereo not given), the survivor count under setting [2] is 1 of 6.
